Laboratory results: patent US20060270591A1, “Androgen receptor coregulators” (priority 2002, published 2006)
Some results were stated once for a whole list of compounds, not compound by compound.

Test system: AR
Assay: AR transactivation assay, MMTV-CAT reporter, transient transfection (Example 1)
Format: cell-based, human
Conditions: DU145 cells
Method: Human prostate cancer DU145 or PC3 cells, or human lung carcinoma cells NCI H1299 were grown in Dulbecco's minimal essential medium (DMEM) containing penicillin (25 U/ml), streptomycin (25˜g/ml), and 5% fetal calf serum (FCS). One hour before transfection, the medium was changed to DMEM with 5% charcoal-stripped FCS. […] A β-galactosidase expression plasmid, pCMV-β-gal, was used as an internal control for transfection efficiency.
The medium was changed 24 hr posttransfection and the cells treated with either steroid hormones or hydroxyflutamide, and cultured for an additional 24 hr. Cells were harvested and assayed for CAT activity after the cell lysates were normalized by using β-galactosidaseas an internal control. Chloramphenicol acetyltransferase (CA) activity was visualized by PhosphorImager (Molecular Dynamics) and quantitated by ImageQuant software (Molecular Dynamics).

Row | Compound | induction of AR transcription activity by ligand (wild type AR without Rb or ARA70, 1 nM HF) | AR transcription activity with cotransfected coactivator (wild type AR, HF)
1 | CC(C)(O)C(=O)Nc1ccc([N+](=O)[O-])c(C(F)(F)F)c1 [HF, hydroxyflutamide, reference compound] | less than 2 fold | 
2 | ARA70: ligand-enhanced AR coregulator, full length ARA70 |  | 3-4 fold
